Experimental data from PubChem BioAssay AID2685 (National Center for Advancing Translational Sciences (NCATS), 2010).
This is one part of the list. These are further read-outs of the screen, such as a control signal, another cell line or another target. No call is given for them. Compounds called inactive in the main read-out are mostly missing here. The note in brackets gives the kind of curve behind each potency; many fits are weak.

Assay: qHTS Assay for Lipid Storage Modulators in Drosophila S3 Cells;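 as to cell number change: cells counted by Cell Tracker Red CMTPX staining in the red channel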
Conditions: BODIPY lipid droplet fluorescence, 18-24 h; for cell number change: measured here: cell count max response, cells fed with added oleic acid
How it was run: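 Drosophila S3 cells loaded with oleic acid (400 uM, as added) and compounds at several concentrations; lipid droplets imaged by 488-nm laser-scanning cytometry, 500–530 nm intensity and object ratio to cell channel. Percent activity normalized to 20 uM Triacsin C.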

[1] = measured here: cell number channel AC50, cells fed with added oleic acid
[2] = measured here: lipid fluorescence (Fed channel) AC50, cells fed with added oleic acid

| SMILES | cell number change [%] | AC50 [1] | AC50 [2] |
| --- | --- | --- | --- |
| COCCN(C(=O)CSc1nc(-c2ccccc2)cn1N)c1c(N)n(Cc2ccccc2)c(=O)[nH]c1=O | 33.1 | 8.2 µM [rising, partial curve, poor fit] | – |
| Nc1nnc(CC2=CCCCC2)s1 | – | – | 1.64 µM [falling, partial curve] |
| O=c1[nH]ncc(N/N=C\c2ccncc2)c1Cl | 31 | 6.51 µM [rising, single point] | – |
| COc1ccc(OC)c(C(=O)COC(=O)COc2ccccc2F)c1 | 11.5 | – | – |
| Cc1cc2nc3n(c2cc1C)CC1CC(C(=O)NCc2cccc(C(F)(F)F)c2)N(C)C31 (centres undefined) | 4.09 | – | 13 µM [rising, single point] |
| COC(=O)c1ccccc1NC(=O)Cn1cc2c(n1)CCC(C)C2 (centres undefined) | 15.1 | – | 18.4 µM [rising, partial curve, poor fit] |
| COc1ccc(S(=O)(=O)N2CCC(C(=O)N3CCOCC3)CC2)cc1Cl | -17.6 | 3.66 µM [falling, single point] | 16.4 µM [falling, single point] |
| Cc1cc(N/N=C/c2ccc(F)cc2)nc(NCc2ccccc2)n1 | -69.7 | 29.1 µM [falling, single point] | – |
| N#Cc1ccc(C(c2nnnn2Cc2ccccc2)N2CCCC2)cc1 (centres undefined) | -18.1 | – | 0.116 µM [falling, full curve, poor fit] |
| CC(C)(C)C1CCC(OC(=O)c2ccncc2)CC1 (centres undefined) | -4.36 | 0.517 µM [falling, single point] | – |
| CC(=O)N1CCN(c2ccc(NC(=S)NC(=O)c3ccc(C)c([N+](=O)[O-])c3)cc2)CC1 | -4.61 | – | 29.1 µM [falling, single point] |
| CN(c1ccccc1C(=O)Nc1cccnc1)S(C)(=O)=O | 0.255 | – | – |
| COc1ccc(C(=O)n2c(-c3ccco3)nc3ccccc32)cc1 | -26.9 | – | 29.1 µM [falling, single point] |
| Cn1c2ccccc2c2cc(C(=O)N3CCN(CCO)CC3)sc21 | 41.5 | 29.1 µM [rising, single point] | – |
| Cc1ccc(N2C(=O)[C@@H]3[C@H](C2=O)C2c4ccccc4C=NN2[C@@H]3C(=O)c2ccc(Cl)cc2)cc1 (some centres undefined) | -17.8 | – | – |
| CCCOc1cc(NCc2ccccc2)c2ncn(C(C)C)c2c1 | -70.2 | 13 µM [falling, partial curve] | – |
| CC(=O)Nc1ccc(NC(=O)COC(=O)C2(c3ccc(Cl)cc3)CCCC2)cc1 | 13.3 | – | 20.6 µM [rising, single point] |
| Cc1ccc(Sc2ncccc2C(=O)N(C)Cc2cccs2)c(C)c1 | -16.2 | 0.651 µM [falling, full curve] | 29.1 µM [rising, single point] |
| CCCC(C)NC(=O)CSc1nc(-c2ccccc2)cn1N (centres undefined) | – | – | 6.51 µM [rising, single point] |
| N#Cc1ccc(-c2cccnc2)nc1SCC(=O)Nc1sc2c(c1C#N)CCC2 | -76.8 | 0.731 µM [rising, partial curve, poor fit] | – |
| O=C(O)C1C2C=CC(C2)C1C(=O)NCCCn1ccnc1 (centres undefined) | – | 0.517 µM [falling, single point] | 0.731 µM [falling, single point] |

Entries of single compounds, looked up by structure. Values in the order: cell number change [%]	AC50 [1]	AC50 [2]
`N#Cc1ccc(-c2cccnc2)nc1SCC(=O)Nc1sc2c(c1C#N)CCC2` as listed: -76.8	0.731 µM [rising, partial curve, poor fit]	–
`CC(=O)Nc1ccc(NC(=O)COC(=O)C2(c3ccc(Cl)cc3)CCCC2)cc1` as listed: 13.3	–	20.6 µM [rising, single point]
`Nc1nnc(CC2=CCCCC2)s1` as listed: –	–	1.64 µM [falling, partial curve]

Single entries from above:
AC50 [2] with O=C(O)C1C2C=CC(C2)C1C(=O)NCCCn1ccnc1 (centres undefined) is entered as 0.731 µM [falling, single point]
AC50 [1] with O=c1[nH]ncc(N/N=C\c2ccncc2)c1Cl is entered as 6.51 µM [rising, single point]

Continued:

| SMILES | cell number change [%] | AC50 [1] | AC50 [2] |
| --- | --- | --- | --- |
| COC(=O)c1ccc(C(=O)OC)c(NC(=S)N2CCC(N3CCCCC3)CC2)c1 | – | – | 0.82 µM [rising, full curve] |
| CCCn1c(NCc2c[nH]c3ccccc23)nc2ccccc21 | – | 5.17 µM [falling, single point] | 0.0326 µM [falling, full curve, poor fit] |
| O=C(c1ccc(OC2CCN(CCc3ccccc3)CC2)cc1)N1CCC(CO)CC1 | – | – | 6.51 µM [falling, single point] |
| CCCCCCCCCCOC(=O)Cn1c(COc2cccc(OC)c2)[n+](C)c2ccccc21 | -69.3 | 11.6 µM [falling, partial curve] | 10.3 µM [falling, partial curve] |
| CC(C)c1c(C(=O)N/N=C/c2cccc3ccccc23)nnn1-c1nonc1N | -13.3 | – | 6.51 µM [falling, single point] |
| COc1cc(C)c(CN2CCN(C(C)C(=O)NC(C)c3ccccc3)CC2)cc1OC (centres undefined) | -15.8 | – | – |
| CCNc1nc(SCc2ccccc2)nc(N2CCOCC2)n1 | -1.65 | – | 1.64 µM [rising, full curve] |
| CC(C)C[C@H](NC(=O)c1[nH]cnc1C(=O)N[C@@H](C)C(=O)OCc1ccccc1)C(=O)OC(C)(C)C | 14.7 | – | 2.59 µM [falling, partial curve, poor fit] |
| Cn1c(=O)[nH]c2cc(Cl)cnc21 | 6.92 | – | – |
| COC(=O)c1cc(CN2CCN(c3ccccc3C)CC2)ccc1O | 17.4 | – | 29.1 µM [rising, single point] |
| CCOC(=O)C1CCN(C(=O)Cc2c(C(=O)O)[nH]c3ccccc23)CC1 | 18.7 | – | 0.00461 µM [falling, full curve, poor fit] |
| COc1cc(CCC(=O)Nc2nnc(C)s2)cc(OC)c1OC | -4.35 | – | 0.58 µM [rising, single point] |
| C/C=C(\NC(C)=O)c1ccccc1 | -15.1 | – | – |
| CCOc1cc(S(=O)(=O)Nc2ccc(CC)cc2)ccc1Cl | -91.2 | 29.1 µM [falling, single point] | – |
| CCCCNC(=O)n1c(SC)nc2ccccc21 | -117 | 4.61 µM [falling, full curve] | – |
| COc1cccc(N=C(N)N)c1 | 24.2 | – | 0.651 µM [falling, single point] |
| COc1ccc(/C=C/C(=O)NC(=S)N2CCN(c3ccccn3)CC2)cc1 | 5.87 | 0.116 µM [rising, full curve, poor fit] | – |
| Cc1ccccc1S(=O)(=O)Cc1ccc(C(=O)NCc2cccs2)o1 | 143 | 5.8 µM [rising, partial curve] | 1.64 µM [rising, full curve] |
| CCc1ccccc1OCC(=O)NNCC(=O)Nc1cccc(C#N)c1 | -1.69 | – | 18.4 µM [rising, single point] |
| CC(NC(=O)C1CCN(C(=O)Nc2ccccc2)CC1)c1ccc(Cl)cc1 (centres undefined) | 6.37 | – | 6.51 µM [falling, single point] |
| CCc1cccc2c(C(=O)COC(=O)c3c(C)noc3C)c[nH]c12 | -20.2 | – | – |

| SMILES | cell number change [%] | AC50 [1] | AC50 [2] |
| --- | --- | --- | --- |
| Cc1cc([N+](=O)[O-])nn1CC(=O)Nc1ccc(Cc2ccncc2)cc1 | 32.4 | 5.17 µM [rising, partial curve] | 8.2 µM [rising, partial curve] |
| CC1(c2ccc(Cl)cc2)NC(=O)N(CC(=O)NCCC2=CCCCC2)C1=O (centres undefined) | -8.65 | – | 29.1 µM [falling, single point] |
| CN1C(=O)C2(c3ccccc31)C1CCCC=C1C(C#N)=C(N)C2(C#N)C#N (centres undefined) | -25.6 | – | 0.164 µM [rising, full curve, poor fit] |
| CCCCCN(C(=O)CN(C)Cc1ccc(OC)cc1OC)c1c(N)n(CCCC)c(=O)[nH]c1=O | – | – | 2.06 µM [falling, single point] |
| CCN1C(=O)C(Cc2nc3ccccc3c(=O)n2C)c2ccccc21 (centres undefined) | 1.63 | – | 23.1 µM [rising, partial curve] |
| Cc1cc(CNC(=O)CCc2nnc(CCCc3ccccc3)o2)nn1C | 26.3 | – | – |
| CCCN(CCC)CCNC(=O)c1cc2c(=O)n(CC)c3ccccc3c2s1 | 18.6 | – | 0.291 µM [rising, partial curve] |
| O=C(NCc1ccc2c(c1)OCO2)C(=O)NCC1OCCN1S(=O)(=O)c1ccc(Cl)cc1 (centres undefined) | 36 | 25.9 µM [rising, partial curve, poor fit] | – |
| CS(=O)(=O)c1ccccc1C(=O)NCCC(c1ccccc1)c1ccccc1 | -22.9 | – | – |
| COc1ccccc1C(CCNCc1ccccc1)c1ccc(OC(C)C)cc1 (centres undefined) | -64.1 | 18.4 µM [falling, partial curve] | 29.1 µM [falling, single point] |
| Cc1ccc(NC(=O)CCC(=O)N2CCC(C)CC2)c([N+](=O)[O-])c1 | 37.6 | 29.1 µM [rising, single point] | – |
| Cc1cc(C)nc(NC(=O)COc2cc(Cl)cc(Cl)c2)n1 | 4.41 | – | 16.4 µM [falling, single point] |
| COc1ccc(N(C(=O)CCl)C(C(=O)NCCc2ccccc2)c2cccs2)cc1 (centres undefined) | -18.7 | – | 29.1 µM [falling, single point] |
| O=S(=O)(NC1=NCCCCC1)c1ccccc1Cl | -26.5 | – | 4.11 µM [falling, partial curve, poor fit] |
| Cc1c(NC(=O)c2cc(=O)[nH]c3ccccc23)c(=O)n(-c2ccccc2)n1C | 9.15 | – | 6.51 µM [falling, single point] |
| CCOC(=O)C1=C(O)C(=O)N(c2ccc(S(N)(=O)=O)cc2)C1c1cccc([N+](=O)[O-])c1 (centres undefined) | -35.9 | 14.6 µM [falling, partial curve, poor fit] | 4.61 µM [falling, partial curve] |
| CC(C)(Oc1ccc(Cl)cc1)C(=O)Nc1ccncc1 | -10.7 | – | – |
| O=C(CCNc1n[nH]c(=O)[nH]c1=O)N/N=C\c1ccc(Br)cc1 | – | – | 29.1 µM [rising, single point] |
| Cc1noc(C)c1CSc1nnc2scc(-c3ccccc3)n12 | -8.68 | – | 2.06 µM [rising, single point] |
| Cc1cc(Br)c(OCc2ccc(C(=O)N/N=C3\CC(=O)CC(C)(C)C3)cc2)c(Br)c1 | – | – | 0.0231 µM [falling, full curve, poor fit] |
